At least one structure is not confirmed: it was looked up by name or label, or the drawing left a doubt.
Test system: LPS-induced PBMCs
Test: Inflammatory cytokine release from LPS-induced PBMCs (Luminex)
Format: cell-based, human
Details: fold change from LPS-treated PBMCs; compounds 10 μM (DEX 1 μg/ml) 2 h, then LPS 0.1 μg/ml 24 h; negative = reduced; OOR = out of standard curve range
Method: Compounds of the invention were assayed for their effect on inflammatory cytokine release from lipopolysaccharides (LPS)-induced PBMCs, isolated from a human blood sample, the results of which are provided in Table 7 as fold change. Exemplary methods for quantifying secretion of inflammatory cytokines in PBMCs are known in the art, for example, as described in Hailer et al., Infection and Immunity. 68(2):752-759 (2000); and Merlini et al., Frontiers in Immunology. 7:614 (2016); each of which is incorporated herein by reference with respect to methods for evaluating cytokine release in PBMCs.
In brief, human blood samples from healthy volunteers were collected and PBMCs were isolated. PBMCs were cultured and each compound was assayed in triplicate at a final concentration of 10 μM for 2 hours. 1 μg/ml dexamethasone (DEX) served as a positive control. LPS was added at a final concentration of 0.1 μg/ml and further incubated for 24 hours. At the end of the incubation, the supernatants were collected and the levels of a panel of secreted cytokines were measured by a Human Magnetic Luminex® assay (R&D). The results in Table 7 are presented as a fold change from LPS-treated PBMCs. Reduced levels are expressed by negative values. OOR denotes values that are out of the standard curve range for the specific cytokine and thus, could not be accurately measured. Cytotoxicity was also determined. […]

Q: For `CCCCCCC(C)(C)c1cc(O)c2c(c1)OC(C)(C)[C@@H]1CC=C(C(=O)NC3CC(F)(F)C3)C[C@@H]21` [Compound 89, (6aR,10aR)-N-(3,3-difluorocyclobutyl)-1-hydroxy-6,6-dimethyl-3-(2-methyloctan-2-yl)-6a,7,10,10a-tetrahydro-6H-benzo[c]chromene-9-carboxamide], which “IL-12 (p70)” value is on record?
A: The value was “OOR”.

Q: What about the L-31 of the same compound?
A: Its L-31 is “OOR”.
